The text below walks through data of patent US20260167620A1, “MULTIFUNCTIONAL COMPOUND CAPABLE OF DEGRADING BTK KINASE, AND COMPOSITION AND USE” (HANGZHOU HEALZEN THERAPEUTICS CO., LTD., priority 2021, published 2026).

The chains behind the UniProt entries cited, without tags or fusion partners.
UniProt Q06187, whole entry: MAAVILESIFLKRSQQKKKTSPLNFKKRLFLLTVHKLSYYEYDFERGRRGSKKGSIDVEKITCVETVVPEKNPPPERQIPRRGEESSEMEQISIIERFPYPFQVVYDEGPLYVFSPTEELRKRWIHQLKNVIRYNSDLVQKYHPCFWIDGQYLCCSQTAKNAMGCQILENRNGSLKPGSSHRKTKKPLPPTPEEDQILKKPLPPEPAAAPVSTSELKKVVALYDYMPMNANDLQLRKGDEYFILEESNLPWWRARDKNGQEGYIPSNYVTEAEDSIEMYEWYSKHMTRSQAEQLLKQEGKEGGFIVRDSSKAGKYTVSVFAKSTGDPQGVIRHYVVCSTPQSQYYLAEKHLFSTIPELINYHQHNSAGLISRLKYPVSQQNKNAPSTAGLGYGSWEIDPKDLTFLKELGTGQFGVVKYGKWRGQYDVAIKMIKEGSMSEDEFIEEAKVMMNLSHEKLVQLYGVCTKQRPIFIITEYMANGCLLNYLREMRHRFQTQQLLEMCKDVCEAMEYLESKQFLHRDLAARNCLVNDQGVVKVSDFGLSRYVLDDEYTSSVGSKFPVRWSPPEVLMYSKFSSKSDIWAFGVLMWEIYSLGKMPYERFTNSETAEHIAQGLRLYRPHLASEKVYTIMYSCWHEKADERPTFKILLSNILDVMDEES

The structures given here were assigned with low confidence; some may be wrong.

One test has as its target BTK (Homo sapiens, UniProt Q06187). Kind of test: BTK degradation activity test in Mino cells (Westernblot or Elisa). In kind it is cell-based. As to conditions: 24-72 h incubation. As for the experimental part: The Mino cell line cells are 0.5˜1 million/well in 6-well plates. The compounds are diluted to different concentrations, added to the plate, and after 24-72 h of incubation, the cells are collected. After the cells were lysed, the total protein concentration in each well was determined with a BCA kit. The amount of BTK is determined using the Westernblot or Elisa method.

The subject of a further test is OCI-LY10 cells. In words: Inhibitory activity on OCI-LY10 cell proliferation (MTS). As to conditions: read-out: OCI-ly10 IC50, 72 h or 168 h. As for the experimental part: The anti-tumor efficacy of the compounds was tested by measuring their inhibitory effects on OCI-LY10 and Mino cell proliferation. OCI-LY10 and Mino cells were cultured in RPM-1640 medium containing […] fetal calf serum. OCI-LY10 and Mino cells were digested, inoculated in a 96-well plate at a cell concentration of 10000 cells/well, and incubated overnight at 37° C., 5% CO2. Compounds of different concentrations (1000 nM, 4-fold dilution, 8 points) were added to the 96-well plate and incubated for 72 h or 168 h at 37° C. and […], and then 20 μL of MTS was added to each well. After incubation for 2 h, 25 μl of 10% SDS was added to each well to terminate the reaction. The absorbance at 490 nm and 650 nm were measured with a microplate reader. IC50 was calculated using GraphPad Prism 5.0.

For the molecule `NC(=O)c1nnc(N2CCCCC2)nc1Nc1ccc(C2CCN(C(=O)C3CN(c4ccc5c(c4)C(=O)N(C4CCC(=O)NC4=O)C5=O)C3)CC2)cc1` (centres unmarked), the DC50 on BTK was below 10 nM.
Molecule `NC(=O)c1cnc(N2CCCCC2)nc1Nc1ccc(N2CCC(CN3CCN(c4ccc5c(c4)C(=O)N(C4CCC(=O)NC4=O)C5=O)CC3)CC2)c(F)c1` (centres unmarked) had a DC50 at BTK below 10 nM.
As for `NC(=O)c1nnc(N2CCCCC2)nc1Nc1ccc(N2CCC(CN3CCN(c4ccc(C5CCC(=O)NC5=O)cc4)CC3)CC2)c(F)c1` (centres unmarked), the DC50 at BTK was below 10 nM. For the same molecule, the half-maximal inhibitory concentration (IC50) in the test with OCI-LY10 cells stood at 1.39 nM.
At BTK, `CC(C)(C)C(=O)OCN1C(=O)CCC(N2C(=O)c3ccc(N4CCC(CN5CCC(c6ccc(Nc7nc(N8CCCCC8)ncc7C(N)=O)cc6)CC5)C4)cc3C2=O)C1=O` (centres unmarked) had a DC50 below 10 nM.

For orientation: DC50 means the midpoint of the concentration-degradation curve. The low end stands for a more potent degrader, the high end for a less potent degrader. As usually defined, the IC50 is the midpoint of a concentration-inhibition curve.
